Values from PubChem BioAssay AID1508588 (Peter MacCallum Cancer Centre, 2020).
This is an unselected part of about 18,000 deposited reagents. 790 of all reagents (4.4%) count as active. 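Calls rest on a combination of fold-change classes in drug and vehicle arms, not all shown here.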 Entries without a mark were called inactive.

Purpose: 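Which gene losses make BRAF-mutant melanoma cells more responsive to vemurafenib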 (primary screen)
Cells: human WM266.4 melanoma cells (BRAF V600 mutant)
Knock-down reagent: siRNA pool against human genes, 40 nM
Timing: 96 h from transfection to read-out
Treatment: vemurafenib 300 nM (about IC25), added 48 h after transfection, for 48 h; comparison arm got DMSO vehicle only
Measurement: 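Cell gain (DAPI nuclei at end minus before drug, mean of two replicates) and medium lactate by absorbance per cell, both as ratio to non-targeting siRNA, also grouped into fold-change classes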
Direction: cell gain with vemurafenib: higher = more cell gain than with non-targeting siRNA; lactate per cell with vemurafenib: higher = more lactate made per cell
Call rule: 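a knock-down counts as enhancing when its fold-change classes with vehicle and with vemurafenib, taken together, show a stronger drug effect on cell gain or lactate per cell; exact class pairs not stated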
Meaning of the calls: active = enhances vemurafenib effect; inactive = no enhancement seen

| gene knocked down | cell gain with vemurafenib | lactate per cell with vemurafenib |
| --- | --- | --- |
| LMNTD2 | 0.67 | 0.99 |
| CCNL1 | 0.54 | 0.62 |
| GGTLC1 | 0.42 | 1.1 |
| HOXC10 | 0.78 | 0.79 |
| TMEM11 | 0.55 | 0.58 |
| PDE3B | 0.74 | 0.5 |
| TAF1D | 0.79 | 0.69 |
| RNF175 | 0.7 | 0.36 |
| CLC | 0.26 | 0.29 |
| C6orf62 | 0.84 | 0.97 |
| PSMD3 | -0.05 | 2.01 |
| TMEM68 | 0.85 | 0.44 |
| BIRC5 | -0.11 | 1.4 |
| ITPR2 | 0.48 (active) | 0.47 |
| PLD1 | 0.92 | 0.86 |
| ZNF83 | 0.79 | 0.44 |
| DNAJA3 | 0.53 | 1.29 |
| COL4A1 | 0.93 | 0.62 |
| KLHL38 | 0.75 | 0.66 |
| MBD3L2 | 0.73 | 0.93 |
| ZDHHC20 | 0.73 | 0.76 |
| DDX19A | 0.66 | 0.89 |
| SLC39A2 | 0.24 | -0.08 |
| CORO7 | 0.23 | 1.48 |
| DPPA5 | 0.42 | 1.56 |
| AHCYL1 | 0.51 | 0.09 |
| SMARCB1 | -0.02 | 3.86 |
| ZNF772 | 0.07 | 3.94 |
| SLC2A9 | 0.76 | 0.38 |
| A1BG | 0.46 (active) | 0.45 |
| SFXN1 | 0.55 | 0.64 |
| CRK | 0.3 | 2.47 |
| SAMTOR | 0.34 | 0.8 |
| MESD | 1.03 | 0.7 |
| KL | 0.92 (active) | 0.7 |
| OR4N5 | 0.53 | 0.92 |
| CDK15 | 0.89 | 0.81 |
| INPPL1 | 0.57 | 0.95 |
| KNL1 | 0.43 | 1.66 |
| FZR1 | 0.53 | 0.85 |
| SERPINA4 | 0.45 | 1.56 |
| TMEM209 | 0.47 | 1.19 |
| EFNA4 | 0.51 | 1.94 |
| IPCEF1 | 0.8 | 0.22 |
| PPP4R3A | 0.68 | 0.8 |
| DMGDH | 0.69 | 0.68 |
| SF3B2 | -0.01 | 1.36 |
| OR52B2 | 0.05 | 0.49 |
| CCDC107 | 0.28 | 1.54 |
| DUSP11 | 0.73 | 0.88 |
| OR4A15 | 0.87 | 1.04 |
| ZNF608 | 0.31 | 1.18 |
| TTLL7 | 1.23 | 0.88 |
| TAS2R1 | 0.53 | 1.19 |
| FBXL22 | 0.44 | 1.43 |
| ATXN10 | 0.43 | 1.58 |
| ARSJ | 0.46 | 1.15 |

Ordered by “cell gain with vemurafenib” (high to low): some entries from above
| gene knocked down | cell gain with vemurafenib | lactate per cell with vemurafenib |
| --- | --- | --- |
| TAF1D | 0.79 | 0.69 |
| PDE3B | 0.74 | 0.5 |
| RNF175 | 0.7 | 0.36 |
| CLC | 0.26 | 0.29 |
